Reference: PubChem BioAssay AID2685 (National Center for Advancing Translational Sciences (NCATS), 2010)
Hit rate of the full screen: of about 320,000 compounds, about 2,100 (0.66%) were called active. Inconclusive results, whose numbers are uncertain, are shown with a selection of clear calls. Calls come from the whole dose curve; as a rule, active = well fitted inhibition curve with a large enough effect in the signal ratio, with a control signal flat (not every such curve was filed as active); inconclusive = small, poorly fitted or top-dose-only effect, or effect the other way, or a change in a side signal; inactive = flat fitted curve, though single readings scatter; the % refers to the signal ratio. Potencies of inconclusive entries are doubtful fits and often do not repeat.

Assay: qHTS Assay for Lipid Storage Modulators in Drosophila S3 Cells
Details: BODIPY lipid droplet fluorescence, 18-24 h, cells fed with added oleic acid; lipid storage change, negative = inhibition: at 46.1 µM (top of the series) unless noted
Summary of the method: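 Drosophila S3 cells got compounds at several concentrations plus oleic acid (400 uM solution). Laser-scanning cytometry with 488 nm excitation read lipid droplets at 500-530 nm and cells at 575-640 nm. Percent activity was relative to 20 uM Triacsin C.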
% is set by controls: 0 for no effect and ±100 for the full control effect; potency is the fitted concentration of half-maximal effect.

Compound	Potency	lipid storage change, negative = inhibition
COc1ccc(/C=C2\SC(=O)NC2=S)cc1OC	inconclusive: 29.1 µM [falling, single point]	
Cc1cccc(-n2c(C)cc(/C=N\NC(=O)c3cccs3)c2C)c1		inconclusive: -30.5%
O=C(COC(=O)c1ccccc1Oc1ccccc1)NC1CC1		inconclusive: 7.66%
O=C(Nc1ccc(-c2cn3ccccc3n2)cc1)c1ccco1		inconclusive: 12.5%
COn1c(=O)c(-c2cccc(Br)c2)[n+]([O-])c2ccccc21		inconclusive: -0.272%
OC(CN1C2=NCCN2c2ccccc21)c1ccccc1 (configuration not stated)		inconclusive: 15%
O=C(N/N=C\c1ccoc1)c1ccco1		inconclusive: 15%
O=[N+]([O-])c1cccc(S(=O)(=O)NCCc2cn3ccccc3n2)c1		inconclusive: 3.14%
O=C(CN(C(=O)c1csnn1)c1ccccc1F)NCc1ccc2c(c1)OCO2		inconclusive: -20.5%
COc1ccc(N(CC(=O)NCc2ccc3c(c2)OCO3)S(=O)(=O)c2ccccc2[N+](=O)[O-])c(OC)c1		inconclusive: -15.7%
Cc1ccccc1OCc1occc1C(=O)Nc1cccc(-n2cnnn2)c1	inconclusive: 29.1 µM [falling, single point]	
C=CCN1C(=O)c2ccc(C(=O)OCC(=O)N(C)C3CCCCC3)cc2C1=O		inconclusive: 25.7%
CC1(C)Cc2c(cnn2-c2ccc(F)cc2)C(NC(=O)CCN2CCCCC2=O)C1 (configuration not stated)		inconclusive: 8.28%
Cc1ccc(S(=O)(=O)N(C)CC(=O)O/N=C(\N)c2ccc([N+](=O)[O-])cc2)cc1		inconclusive: 0.165%
Nc1c(Cl)ncnc1N/N=C/c1cccc(O)c1		inconclusive: -26.3%
CC(C)c1ccc(/C=C/C(=O)N2CCCCCC2)cc1		inconclusive: -2.07%
CCN(CC)CCOC(=O)c1ccc(N/C=C(/C#N)c2nc(-c3cc4ccccc4oc3=O)cs2)cc1		inconclusive: -48.2%
Cc1nc2c(C)cccn2c(=O)c1NC(=O)c1cccs1		inconclusive
CN(C)/C=C/C(=O)c1ccccc1OCc1cnc(Cl)s1	inconclusive: 1.16 µM [cytotoxic, full curve]	
CC(=O)c1cccc(NC(=O)C(C)OC(=O)c2cccc(S(=O)(=O)N3CCN(C)CC3)c2)c1 (configuration not stated)		inconclusive: 147%
CNS(=O)(=O)c1ccc(NCC2COc3ccccc3O2)c([N+](=O)[O-])c1 (configuration not stated)		inconclusive: -43.1%
Cc1ccnc(NS(=O)(=O)c2cccs2)c1	inconclusive: 6.51 µM [falling, single point]	
COc1cc2c(cc1OC)CN(C(=O)c1ccc(OC)c(S(=O)(=O)N3CCOCC3)c1)CC2		inconclusive: 30.3%
CCOC(=O)C1CCN(C(=O)Cc2c(F)cccc2Cl)CC1		inconclusive: 12.8%
O=C(CN1CCCC1c1cccs1)N1CCN(S(=O)(=O)c2cccc(F)c2)CC1 (configuration not stated)	inconclusive: 0.259 µM [activator, full curve]	
Cc1cc(C)c(C)c(S(=O)(=O)Nc2ccccc2C(=O)NCCCn2ccnc2)c1C	inconclusive: 0.58 µM [activator, partial curve]	

Compound	Potency	lipid storage change, negative = inhibition
CC1(OC(=O)CCc2ccccc2)C(=O)C=C2C=C3CCCN3C=C2C1=O (configuration not stated)		inconclusive: 16.2%
O=C1CCCC(=O)N1c1ccc(N2CCN(c3ccccc3)CC2)c([N+](=O)[O-])c1		inactive
CCc1cccc(OCC(=O)Nc2ccc(S(=O)(=O)Nc3onc(C)c3C)cc2)c1	inconclusive: 0.0041 µM [activator, full curve, poor fit]	
CC(=O)NC1CCN(CC(=O)Nc2nccs2)CC1		inconclusive: -6.85%
COc1ccc(C2/C(=C(/O)c3ccccc3)C(=O)C(=O)N2C)cc1 (configuration not stated)	inconclusive: 29.1 µM [falling, single point]	
O=C(COC(=O)COc1ccc(Cl)cc1Cl)NC1CCCCCC1		inconclusive: 20.7%
Cc1nn(-c2ccccc2)c(Cl)c1C(=O)OC(C)C(=O)NC(=O)NC1CCCCC1 (configuration not stated)		inconclusive: -20.6%
CCC(C)NC(=O)c1cc2cc3ccc(OC)cc3nc2s1 (configuration not stated)	inconclusive: 23.1 µM [falling, partial curve]	
COc1ccc(N2CC(C(=O)Nc3ccccc3N3CCCC3)CC2=O)c(OC)c1 (configuration not stated)		inconclusive
Cc1ccc(NC(=O)Cc2cn3ccsc3n2)nc1		inconclusive: 35%
CC(C)NC(=O)COc1coc(CN2CCN(c3cccc(Cl)c3)CC2)cc1=O	inconclusive: 16.4 µM [activator, single point]	
Cc1cccc(OCC(=O)NCc2ccncc2)c1C	inconclusive: 9.2 µM [rising, partial curve]	
CCN(C(=O)CN1C(=O)c2ccc([N+](=O)[O-])cc2C1=O)C1CCS(=O)(=O)C1 (configuration not stated)		inconclusive
CN(CCCNC(=O)C1CCN(S(=O)(=O)c2cccc3nsnc23)CC1)Cc1ccccc1		inconclusive: -1.25%
N=c1n(Cc2ccccc2)c2ccccc2n1CC(O)c1ccccc1 (configuration not stated)	inconclusive: 29.1 µM [cytotoxic, single point]	
O=C(CSc1ccccc1[N+](=O)[O-])NC1CCS(=O)(=O)C1 (configuration not stated)		inconclusive: 9.25%
O=C(O)CCC(=O)N1CCN(c2ccccn2)CC1		inconclusive: 82%
COc1ccc(NC(=O)c2ccc(C)cc2)cc1	inconclusive: 0.411 µM [activator, full curve]	
CCC1CCCCN1CCNC(=O)C1CCN(S(=O)(=O)c2cccc3nsnc23)CC1 (configuration not stated)	inconclusive: 23.1 µM [activator, single point]	
O=C(O)COc1ccc2oc3ccccc3c2c1		inconclusive: -19.8%
CN1CCN(c2ccc(NS(=O)(=O)c3ccc(Cl)cc3)cn2)CC1		inconclusive: -32.9% [at 9.22 µM]
COc1ccccc1C(=O)NNC(=S)Nc1ccccc1		inconclusive: 3.02% [at 9.22 µM]
CCC1Oc2ccccc2N(CC(=O)NC2CCCCC2C)C1=O (configuration not stated)	active: 29.1 µM	
Cc1cc(C)c(S(=O)(=O)NCc2cccs2)cc1C	inconclusive: 29.1 µM [falling, single point]	
Cc1c(NC(=O)c2ccc3nsnc3c2)cccc1[N+](=O)[O-]		inconclusive: 78.1%
CC(C)(C)n1nc2c(c1NC(=O)c1ccc(Br)o1)CS(=O)C2 (configuration not stated)		inactive

An excerpt from above in order of SMILES length, high to low:
Compound	Potency	lipid storage change, negative = inhibition
COc1ccc(C2/C(=C(/O)c3ccccc3)C(=O)C(=O)N2C)cc1 (configuration not stated)	inconclusive: 29.1 µM [falling, single point]	
Cc1ccc(NC(=O)Cc2cn3ccsc3n2)nc1		inconclusive: 35%
COc1ccc(NC(=O)c2ccc(C)cc2)cc1	inconclusive: 0.411 µM [activator, full curve]	

Later entries:

Compound	Potency	lipid storage change, negative = inhibition
COc1cc(C(=O)NCc2cccc3ccccc23)ccc1OCc1ccccc1	inconclusive: 4.61 µM [activator, full curve]	
Cc1ccccc1OCC1Cn2c(nc3c2c(=O)[nH]c(=O)n3C)O1 (configuration not stated)		inconclusive: 21.5%
C=CCOc1ccc(C2/C(=C(\O)c3ccc4c(c3)OCCO4)C(=O)C(=O)N2CCCN2CCOCC2)cc1 (configuration not stated)	inconclusive: 20.6 µM [activator, single point]	
CCOc1ccccc1N(CC(=O)Nc1cccnc1)S(=O)(=O)c1ccc(C)cc1		inconclusive: 19.6%
Cc1ccc(-c2nc(CS(=O)(=O)CC(=O)N3CCOCC3)c(C)o2)cc1	inconclusive: 29.1 µM [activator, single point]	
CC(=O)c1ccc(NS(=O)(=O)c2c(C)cc(C)cc2C)cc1	inconclusive: 29.1 µM [falling, single point]	
CC(=O)c1cccc(NC(=O)COC(=O)CC2CC3CCC2C3)c1 (configuration not stated)		inconclusive: -4.56%
COCC(C)N1CCC(n2nccc2NC(=O)CCOc2ccccc2)CC1 (configuration not stated)		inconclusive: 16.2%
Cc1noc(C)c1COc1ccc(C(=O)NNC(=O)c2ccccc2F)cc1		inconclusive: 16.5%
COc1cc(Nc2nc(-c3ccccc3)c3cc(C)ccc3n2)cc(OC)c1OC	inconclusive: 18.4 µM [falling, single point]	
Cc1ccccc1OCC1Cn2c(nc3c2c(=O)n(C)c(=O)n3C)O1 (configuration not stated)		inconclusive: -59.4%
Cc1cc(/C=C2\SC(=O)N(C)C2=O)c(C)n1-c1ccc(O)cc1		inconclusive: -5.96%
CC1(C)O[C@@H]2C[C@H]3[C@@H]4CCC5=CC(=O)C=C[C@]5(C)[C@@]4(F)[C@@H](O)C[C@]3(C)[C@]2(C(=O)CO)O1		inconclusive: -32%
CC1CC/C(=N/Nc2ccccc2)C(=O)N1 (configuration not stated)	inconclusive: 29.1 µM [activator, single point]	
CCN1CC(CN(C)Cc2nc(-c3ccc(Cl)cc3)no2)CC1=O (configuration not stated)		inconclusive: 34.4%
COc1ccc(NC(=O)c2cc(-c3ccccn3)nc3c(C)cc(C)cc23)c(C)c1		inconclusive: -63.2%
CCN(Cc1ccccc1)C(c1ccccn1)c1nnnn1C(C)(C)CC (configuration not stated)		inconclusive: -0.275%
COc1cccc(N(C(=O)CCl)C(C(=O)NCCc2ccccc2)c2cccs2)c1 (configuration not stated)	inconclusive: 23.1 µM [falling, single point]	
Cc1ccc(O)c(NC(=O)/C=C/C(=O)O)c1		inconclusive: 2.06%
Cc1ccc(S(=O)(=O)NNC(=O)c2ccc3ccccc3n2)cc1	inconclusive: 1.03 µM [activator, full curve]	
Cc1cc2c(cc1S(=O)(=O)N(C)c1ccccc1)n(C)c(=O)n2C		inactive
O=C(N/N=C/c1ccc([N+](=O)[O-])o1)c1cc(-c2cccc(Br)c2)nc2ccccc12		inconclusive: -33.3%
O=C(c1cc(C2CC2)nn1-c1ccccc1)N1CCN(S(=O)(=O)c2c(F)cccc2F)CC1		inconclusive: -18.9%
Cc1ccccc1C(=O)NCCCNC(=O)c1cnccn1	inconclusive: 1.3 µM [activator, full curve]	
COC(=O)CC(c1ccc(C(C)C)cc1)n1cccc1 (configuration not stated)		inconclusive: -30.7%

Of the compounds above, these have an aryl methoxy group.
Compound	Potency	lipid storage change, negative = inhibition
COc1ccc(/C=C2\SC(=O)NC2=S)cc1OC	inconclusive: 29.1 µM [falling, single point]	
COc1ccc(N(CC(=O)NCc2ccc3c(c2)OCO3)S(=O)(=O)c2ccccc2[N+](=O)[O-])c(OC)c1		inconclusive: -15.7%
COc1cc2c(cc1OC)CN(C(=O)c1ccc(OC)c(S(=O)(=O)N3CCOCC3)c1)CC2		inconclusive: 30.3%
COc1ccc(C2/C(=C(/O)c3ccccc3)C(=O)C(=O)N2C)cc1 (configuration not stated)	inconclusive: 29.1 µM [falling, single point]	
CCC(C)NC(=O)c1cc2cc3ccc(OC)cc3nc2s1 (configuration not stated)	inconclusive: 23.1 µM [falling, partial curve]	
COc1ccc(N2CC(C(=O)Nc3ccccc3N3CCCC3)CC2=O)c(OC)c1 (configuration not stated)		inconclusive
COc1ccc(NC(=O)c2ccc(C)cc2)cc1	inconclusive: 0.411 µM [activator, full curve]	
COc1ccccc1C(=O)NNC(=S)Nc1ccccc1		inconclusive: 3.02% [at 9.22 µM]
COc1cc(C(=O)NCc2cccc3ccccc23)ccc1OCc1ccccc1	inconclusive: 4.61 µM [activator, full curve]	
COc1cc(Nc2nc(-c3ccccc3)c3cc(C)ccc3n2)cc(OC)c1OC	inconclusive: 18.4 µM [falling, single point]	
COc1ccc(NC(=O)c2cc(-c3ccccn3)nc3c(C)cc(C)cc23)c(C)c1		inconclusive: -63.2%
COc1cccc(N(C(=O)CCl)C(C(=O)NCCc2ccccc2)c2cccs2)c1 (configuration not stated)	inconclusive: 23.1 µM [falling, single point]	
